Measurements: article PMC12520357 (2025)
Substitutions are numbered along the chain they refer to. Results are given in words; binding and its absence hold for the method and conditions named. In cells and extracts the contact can be indirect. Some entries that bind do so weakly or less than the wild type. Where a sequence is shown, tags or fusion partners need not be part of it.

Sequences of proteins named here, by UniProt entry; tags and fusion partners are left off.
UniProt P32598: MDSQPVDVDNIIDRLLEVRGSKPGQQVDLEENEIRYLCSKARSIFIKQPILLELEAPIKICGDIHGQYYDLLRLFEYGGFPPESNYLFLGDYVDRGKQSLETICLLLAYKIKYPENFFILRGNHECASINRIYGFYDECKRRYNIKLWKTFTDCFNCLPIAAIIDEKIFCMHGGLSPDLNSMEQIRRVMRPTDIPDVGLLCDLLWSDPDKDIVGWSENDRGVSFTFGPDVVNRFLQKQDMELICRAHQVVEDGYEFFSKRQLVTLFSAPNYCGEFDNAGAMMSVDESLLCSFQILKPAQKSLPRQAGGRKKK

B1: Snf1-GFP (protein, UniProt P06782 1-633)
chain: MSSNNNTNTAPANANSSHHHHHHHHHHHHHGHGGSNSTLNNPKSSLADGAHIGNYQIVKTLGEGSFGKVKLAYHTTTGQKVALKIINKKVLAKSDMQGRIEREISYLRLLRHPHIIKLYDVIKSKDEIIMVIEYAGNELFDYIVQRDKMSEQEARRFFQQIISAVEYCHRHKIVHRDLKPENLLLDEHLNVKIADFGLSNIMTDGNFLKTSCGSPNYAAPEVISGKLYAGPEVDVWSCGVILYVMLCRRLPFDDESIPVLFKNISNGVYTLPKFLSPGAAGLIKRMLIVNPLNRISIHEIMQDDWFKVDLPEYLLPPDLKPHPEEENENNDSKKDGSSPDNDEIDDNLVNILSSTMGYEKDEIYESLESSEDTPAFNEIRDAYMLIKENKSLIKDMKANKSVSDELDTFLSQSPPTFQQQSKSHQKSQVDHETAKQHARRMASAITQQRTYHQSPFMDQYKEEDSTVSILPTSLPQIHRANMLAQGSPAASKISPLVTKKSKTRWHFGIRSRSYPLDVMGEIYIALKNLGAEWAKPSEEDLWTIKLRWKYDIGNKTNTNEKIPDLMKMVIQLFQIETNNYLVDFKFDGWESSYGDDTTVSNISEDEMSTFSAYPFLHLTTKLIMELAVNSQSN

Key:
[1] = biological target: T1, Reg1-FLAG (wild type) (S. cerevisiae) (UniProt Q00816); assay: co-IP; Reg1-FLAG precipitated on anti-FLAG M2 agarose from native yeast lysates (50 mM HEPES pH 7.5, 150 mM NaCl, 0.5% Triton X-100, 1 mM DTT, 10% glycerol), 1 h at 4°C; blots with anti-FLAG, anti-GFP (Glc7, Snf1) and anti-14-3-3; steady state
T1 sequence: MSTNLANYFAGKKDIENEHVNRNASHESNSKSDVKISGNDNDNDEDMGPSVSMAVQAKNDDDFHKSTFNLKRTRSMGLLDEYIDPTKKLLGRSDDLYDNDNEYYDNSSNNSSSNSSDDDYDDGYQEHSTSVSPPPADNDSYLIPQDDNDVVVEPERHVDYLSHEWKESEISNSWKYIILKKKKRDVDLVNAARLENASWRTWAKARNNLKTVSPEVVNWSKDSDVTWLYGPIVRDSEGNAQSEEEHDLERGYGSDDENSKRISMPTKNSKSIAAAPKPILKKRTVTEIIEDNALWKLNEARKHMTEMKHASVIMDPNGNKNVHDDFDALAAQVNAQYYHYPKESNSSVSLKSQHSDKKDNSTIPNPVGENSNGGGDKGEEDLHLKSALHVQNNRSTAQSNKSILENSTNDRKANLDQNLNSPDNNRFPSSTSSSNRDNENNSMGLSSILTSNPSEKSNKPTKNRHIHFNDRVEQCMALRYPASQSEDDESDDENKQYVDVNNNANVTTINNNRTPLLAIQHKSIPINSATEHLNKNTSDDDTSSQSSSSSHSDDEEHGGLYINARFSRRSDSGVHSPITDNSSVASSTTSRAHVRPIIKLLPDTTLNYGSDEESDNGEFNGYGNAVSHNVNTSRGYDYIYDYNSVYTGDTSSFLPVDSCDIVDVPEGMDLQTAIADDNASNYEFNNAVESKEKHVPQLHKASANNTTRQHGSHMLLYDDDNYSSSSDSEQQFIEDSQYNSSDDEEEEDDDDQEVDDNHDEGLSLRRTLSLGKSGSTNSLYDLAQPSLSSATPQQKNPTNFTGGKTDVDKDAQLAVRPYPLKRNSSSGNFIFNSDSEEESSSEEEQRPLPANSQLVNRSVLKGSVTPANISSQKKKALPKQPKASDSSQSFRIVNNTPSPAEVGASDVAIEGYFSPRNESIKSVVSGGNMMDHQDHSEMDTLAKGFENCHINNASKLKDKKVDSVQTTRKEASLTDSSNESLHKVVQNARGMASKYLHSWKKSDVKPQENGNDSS

[2] = biological target: T2, Reg1-P278Q-FLAG (S. cerevisiae) (UniProt Q00816); assay: as above
T2 sequence: T1 sequence with P278Q

| binding [1] | binding [2] | Molecule |
| --- | --- | --- |
| binds | binds | Glc7-GFP (from UniProt P32598 1-312) |
| binds | binds | B1 |
